## Percent effect of library compounds

Amino acid sequences for entries named in this document (tags omitted). Residues count along the entry.
UniProt P9WFT3, whole entry: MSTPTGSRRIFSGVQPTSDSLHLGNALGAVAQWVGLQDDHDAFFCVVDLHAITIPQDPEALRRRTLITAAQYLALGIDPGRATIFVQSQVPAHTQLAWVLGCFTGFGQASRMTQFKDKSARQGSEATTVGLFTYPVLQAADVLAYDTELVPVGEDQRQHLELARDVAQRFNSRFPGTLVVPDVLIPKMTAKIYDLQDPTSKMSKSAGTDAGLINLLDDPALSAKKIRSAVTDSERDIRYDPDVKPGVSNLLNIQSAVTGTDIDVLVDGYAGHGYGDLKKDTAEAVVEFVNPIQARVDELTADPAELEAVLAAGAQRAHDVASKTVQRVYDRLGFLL
UniProt Q4DA54, 1-478: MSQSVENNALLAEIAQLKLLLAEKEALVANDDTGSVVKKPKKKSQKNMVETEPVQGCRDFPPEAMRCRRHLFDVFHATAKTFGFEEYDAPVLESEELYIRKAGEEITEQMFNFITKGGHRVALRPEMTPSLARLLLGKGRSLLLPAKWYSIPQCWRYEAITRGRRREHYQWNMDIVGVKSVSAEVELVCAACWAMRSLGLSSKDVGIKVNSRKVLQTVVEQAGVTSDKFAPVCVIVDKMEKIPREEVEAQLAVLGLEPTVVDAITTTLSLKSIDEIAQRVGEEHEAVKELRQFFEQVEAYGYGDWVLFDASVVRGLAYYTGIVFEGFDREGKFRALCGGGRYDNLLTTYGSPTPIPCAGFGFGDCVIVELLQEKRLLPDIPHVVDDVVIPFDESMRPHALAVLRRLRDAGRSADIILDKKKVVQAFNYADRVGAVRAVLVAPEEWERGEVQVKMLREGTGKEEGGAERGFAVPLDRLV
UniProt Q8IDJ8, 1-583: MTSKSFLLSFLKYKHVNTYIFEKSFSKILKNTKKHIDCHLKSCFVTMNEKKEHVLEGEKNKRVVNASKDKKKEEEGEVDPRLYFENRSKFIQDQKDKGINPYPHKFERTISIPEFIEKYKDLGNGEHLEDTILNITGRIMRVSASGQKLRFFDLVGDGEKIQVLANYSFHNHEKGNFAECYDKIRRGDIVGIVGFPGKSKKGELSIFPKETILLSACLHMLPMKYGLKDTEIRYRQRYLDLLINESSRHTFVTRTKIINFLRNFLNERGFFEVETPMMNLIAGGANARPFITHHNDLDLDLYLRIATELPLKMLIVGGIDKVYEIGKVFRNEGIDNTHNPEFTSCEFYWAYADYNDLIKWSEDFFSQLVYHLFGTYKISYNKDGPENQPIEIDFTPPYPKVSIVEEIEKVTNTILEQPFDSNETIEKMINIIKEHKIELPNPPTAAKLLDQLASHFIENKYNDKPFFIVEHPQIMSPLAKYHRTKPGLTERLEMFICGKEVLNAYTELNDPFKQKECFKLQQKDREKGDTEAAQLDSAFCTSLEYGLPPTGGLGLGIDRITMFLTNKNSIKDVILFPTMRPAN
UniProt P9WNZ1, whole entry: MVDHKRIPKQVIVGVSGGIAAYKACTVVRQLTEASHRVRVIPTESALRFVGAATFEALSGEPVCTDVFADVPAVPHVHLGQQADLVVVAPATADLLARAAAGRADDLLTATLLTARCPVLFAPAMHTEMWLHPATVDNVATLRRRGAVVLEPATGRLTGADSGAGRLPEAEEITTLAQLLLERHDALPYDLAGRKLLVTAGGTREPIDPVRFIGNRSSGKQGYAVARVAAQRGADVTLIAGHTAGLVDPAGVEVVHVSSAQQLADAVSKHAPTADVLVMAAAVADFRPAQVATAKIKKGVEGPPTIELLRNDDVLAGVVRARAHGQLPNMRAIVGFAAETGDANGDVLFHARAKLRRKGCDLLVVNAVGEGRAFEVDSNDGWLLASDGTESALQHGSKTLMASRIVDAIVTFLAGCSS
UniProt I6X8D2, whole entry: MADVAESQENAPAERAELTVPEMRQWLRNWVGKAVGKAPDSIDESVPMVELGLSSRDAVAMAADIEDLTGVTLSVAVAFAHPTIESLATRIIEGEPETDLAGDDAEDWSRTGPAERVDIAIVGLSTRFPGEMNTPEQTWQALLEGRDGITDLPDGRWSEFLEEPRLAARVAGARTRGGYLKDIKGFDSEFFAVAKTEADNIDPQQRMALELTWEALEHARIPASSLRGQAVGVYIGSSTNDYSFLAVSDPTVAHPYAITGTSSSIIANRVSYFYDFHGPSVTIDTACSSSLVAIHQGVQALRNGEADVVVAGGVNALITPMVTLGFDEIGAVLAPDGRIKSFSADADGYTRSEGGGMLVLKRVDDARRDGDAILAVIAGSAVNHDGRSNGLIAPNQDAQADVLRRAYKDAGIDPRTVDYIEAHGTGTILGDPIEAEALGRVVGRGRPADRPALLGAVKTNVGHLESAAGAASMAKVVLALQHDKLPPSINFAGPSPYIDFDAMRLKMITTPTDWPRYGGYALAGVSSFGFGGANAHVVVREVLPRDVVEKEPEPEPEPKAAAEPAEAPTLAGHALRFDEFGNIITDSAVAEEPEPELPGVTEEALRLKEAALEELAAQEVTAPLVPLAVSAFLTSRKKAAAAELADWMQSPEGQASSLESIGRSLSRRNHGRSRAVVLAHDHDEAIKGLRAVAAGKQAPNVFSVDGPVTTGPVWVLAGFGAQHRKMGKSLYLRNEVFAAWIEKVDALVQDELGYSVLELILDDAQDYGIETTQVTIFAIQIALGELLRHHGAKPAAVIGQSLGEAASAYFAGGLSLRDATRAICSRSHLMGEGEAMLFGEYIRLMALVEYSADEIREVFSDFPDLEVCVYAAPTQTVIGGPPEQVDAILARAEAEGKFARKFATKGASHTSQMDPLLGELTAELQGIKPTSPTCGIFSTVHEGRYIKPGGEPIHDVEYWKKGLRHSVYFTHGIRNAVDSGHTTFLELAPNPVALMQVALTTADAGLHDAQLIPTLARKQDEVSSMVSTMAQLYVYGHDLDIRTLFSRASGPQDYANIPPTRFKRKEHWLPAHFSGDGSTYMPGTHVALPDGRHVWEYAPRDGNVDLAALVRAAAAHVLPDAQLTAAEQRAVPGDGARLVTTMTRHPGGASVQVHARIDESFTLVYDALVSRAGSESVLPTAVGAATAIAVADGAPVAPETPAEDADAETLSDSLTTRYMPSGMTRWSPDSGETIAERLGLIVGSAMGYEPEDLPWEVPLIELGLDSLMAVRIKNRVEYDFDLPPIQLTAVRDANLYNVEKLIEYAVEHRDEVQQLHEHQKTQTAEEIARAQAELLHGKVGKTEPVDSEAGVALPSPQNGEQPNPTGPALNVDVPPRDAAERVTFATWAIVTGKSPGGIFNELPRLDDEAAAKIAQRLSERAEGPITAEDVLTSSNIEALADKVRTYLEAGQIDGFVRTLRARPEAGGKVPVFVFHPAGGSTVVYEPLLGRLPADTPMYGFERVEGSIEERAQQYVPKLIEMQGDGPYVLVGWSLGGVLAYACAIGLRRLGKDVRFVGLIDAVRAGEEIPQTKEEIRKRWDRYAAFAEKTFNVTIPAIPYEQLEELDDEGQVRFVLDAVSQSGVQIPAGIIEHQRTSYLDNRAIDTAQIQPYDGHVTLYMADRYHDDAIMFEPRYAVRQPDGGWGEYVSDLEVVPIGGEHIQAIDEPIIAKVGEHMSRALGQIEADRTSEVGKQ

From ChEMBL document CHEMBL3988442, “University of Dundee, Small-Polar-MMV Screening Library” (2021).

MtTrpRS: 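Tryptophan-tRNA ligase, Mycobacterium tuberculosis (UniProt P9WFT3). Enzyme assay of tryptophanyl-tRNA synthetase; the read-out is not stated. Concentration: 10 µM. Higher most likely means stronger inhibition; the record gives no direction and few retests gave an IC50. About 65,000 compounds were tested under these conditions; 0.098% (about 64) showed 50% or more at least once.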
TcHisRS: 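Enzyme assay of histidyl-tRNA synthetase; the read-out is not stated. Target: Histidine-tRNA ligase, Trypanosoma cruzi CL Brener (UniProt Q4DA54). Tested at 30 µM. Direction is inferred from retests: higher values go with stronger inhibition. About 69,000 compounds were tested under these conditions; 0.045% (about 31) showed 50% or more at least once.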
PfKRS1: 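Enzyme assay of the cytosolic lysyl-tRNA synthetase in 384-well plates, read by luminescence. Target: Lysine-tRNA ligase, Plasmodium falciparum 3D7 (UniProt Q8IDJ8). Tested at 30 µM. Direction is inferred from only a few compounds that gave an IC50; most scored high, so higher reads as stronger inhibition. Size under these conditions: about 69,000 compounds, about 49 of them at 50% or above in at least one test.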
CoaBC: 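Coenzyme A biosynthesis protein CoaBC, Mycobacterium tuberculosis (UniProt P9WNZ1). Enzyme assay of CoaBC with a phosphate dye (Biomol Green) read at 650 nm. Compounds at 30 µM. Direction is inferred from only a few compounds that gave an IC50; most scored high, so higher reads as stronger inhibition. Most strong results did not repeat in a second test. Of about 67,000 compounds tested this way, about 40 (0.06%) reached 50% or more in at least one test.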
Pks13 thioesterase: 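Enzyme assay of the thioesterase domain of polyketide synthase 13; the read-out is not stated. Target: Polyketide synthase Pks13, Mycobacterium tuberculosis (UniProt I6X8D2). Compounds at 30 µM. Higher reads as stronger inhibition (inferred from which compounds were picked for retests). About 67,000 compounds were tested under these conditions; 0.46% (about 300) showed 50% or more at least once.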
Leishmania in macrophages: 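Cell assay of Leishmania donovani living inside macrophages; the read-out is not stated. Compounds at 30 µM. Higher reads as stronger inhibition (inferred: compounds with an IC50 in retests scored well above the rest). About 69,000 compounds were tested under these conditions; 1.5% (about 1,000) showed 50% or more at least once.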

Values are the deposited “Percent Effect”, in %. The record does not define 0% and 100%; most values in the screen are far below 50% and negative numbers occur (in some assays of this library far below -100). This is an unselected part of the compounds tested. Two or more numbers in one place are separate tests of the same structure; such repeats can differ widely.

- CC(C)C(=O)Nc1ccc(Oc2ccc3c(c2)OCO3)nc1 : MtTrpRS: 1.929%; TcHisRS: 7.921%; PfKRS1: 4.528%; CoaBC: 2.795%; Pks13 thioesterase: 0.9172%; Leishmania in macrophages: 0.7175%
- O=C(O)C(c1ccc(O)cc1)N1CCC(N2CCSCC2)CC1 (stereo unspecified) : MtTrpRS: 4.645%; TcHisRS: 9.091%; PfKRS1: 1.807%; CoaBC: 6.734%; Pks13 thioesterase: -23.89%; Leishmania in macrophages: -30.69%
- O=S(=O)(C1CC1)N1CCC2(CC1)COC(COc1ccccn1)C2 (stereo unspecified) : MtTrpRS: -4.148%; TcHisRS: 6.897%; PfKRS1: -0.1141%; CoaBC: -2.24%; Pks13 thioesterase: 24.44%; Leishmania in macrophages: -4.816%
- Cc1cc(NCCc2cnccn2)nc(-c2ccccc2O)n1 : MtTrpRS: 5.034%; TcHisRS: 1.786%; PfKRS1: 4.944%; CoaBC: 4.403%; Pks13 thioesterase: -8.52%; Leishmania in macrophages: 27.15%
- CCn1cc(NC(=O)NCc2ccc(CO)c(F)c2)cn1 : MtTrpRS: 3.805%; TcHisRS: -11.11%; PfKRS1: 2.907%; CoaBC: -4.826%; Pks13 thioesterase: -16.79%; Leishmania in macrophages: 7.795%
- CCCn1ncc(-c2nc3c(cnn3CC)[nH]2)c1C : MtTrpRS: -2.835%; TcHisRS: 4.04%; PfKRS1: 6.04%; CoaBC: 2.558%; Pks13 thioesterase: 5.628%; Leishmania in macrophages: 25.84%
- CS(=O)(=O)N1CCC2(CC1)CC(NCC1CC1)c1ccccc12 (stereo unspecified) : TcHisRS: 2.513%; PfKRS1: 0.3104%; CoaBC: 3.589%; Pks13 thioesterase: -9.856%
- COc1c(C2CCCN2C(=O)c2cc(C3CC3)on2)c(C)nn1C (stereo unspecified) : MtTrpRS: -1.331%; TcHisRS: 5.155%; PfKRS1: 2.893%; CoaBC: -1.222%; Pks13 thioesterase: -16.38%; Leishmania in macrophages: -25.49%
- O=C(Cn1cc(I)cn1)NCC1CCC1 : MtTrpRS: 1.159%; TcHisRS: 9.756%; PfKRS1: 5.195%; CoaBC: -0.2532%; Leishmania in macrophages: 1.353% & 7.629%
- CC1(C)OCC2(CO1)CN(C(=O)c1ccccc1Cl)C2 : MtTrpRS: -2.964%; TcHisRS: 3.093%; PfKRS1: 7.684%; CoaBC: 1.903%; Pks13 thioesterase: -11.45%; Leishmania in macrophages: -1.55% & -9.615%
- CC(C)=CCN1CCN(S(=O)(=O)c2cn(C)cn2)[C@H]2CS(=O)(=O)C[C@H]21 : MtTrpRS: 0.3303%; TcHisRS: -18.97%; PfKRS1: -7.988%; CoaBC: -2.484%; Pks13 thioesterase: -19.58%
- CNc1nc(CNC(=O)Nc2cccc(C)c2Cl)cs1 : MtTrpRS: 2.574%; TcHisRS: 4.734%; PfKRS1: -0.9068%; CoaBC: -2.155%; Pks13 thioesterase: -11.04%; Leishmania in macrophages: 24.11%
- CCS(=O)(=O)N1Cc2ncn(CC3CC3)c2C(COCC2CC2)C1 (stereo unspecified) : MtTrpRS: 2.632%; TcHisRS: 11.21%; PfKRS1: 1.991%; CoaBC: -14.07%; Pks13 thioesterase: -28.99%
- Cc1cnc(CN(Cc2ccccc2)CC2CCOCC2)cn1 : MtTrpRS: -2.522%; TcHisRS: 3.659%; PfKRS1: -1.642%; CoaBC: 1.772%; Pks13 thioesterase: -3.621%; Leishmania in macrophages: 14.4% & -6.843%
- CCc1ccc(CCC(=O)N2CCC(=O)Nc3cccnc32)cc1 : MtTrpRS: 4.139%; TcHisRS: 15.15%; PfKRS1: 1.245%; CoaBC: 8.029%; Pks13 thioesterase: -15.95%; Leishmania in macrophages: 12.65%
- COCC(=O)N1CCC2(CC1)CC(N1CCN(C)CC1)CO2 (stereo unspecified) : MtTrpRS: 10.37%; TcHisRS: -1.227%; PfKRS1: 1.788%; Pks13 thioesterase: 6.984%; Leishmania in macrophages: 7.654%
- CN1CCCCC1c1ncc2c(n1)CCN(Cc1ccc(Cl)c(F)c1)C2 (stereo unspecified) : TcHisRS: 29.96%; PfKRS1: 1.955%; CoaBC: 4.089%; Pks13 thioesterase: 1.028%; Leishmania in macrophages: -9.839%
- CCS(=O)(=O)c1ccccc1N1CCC(NC(=O)C2CC2)CC1 : MtTrpRS: -5.844%; TcHisRS: 5.848%; PfKRS1: 1.16%; CoaBC: -4.847%; Pks13 thioesterase: -5.014%; Leishmania in macrophages: 3.302%
- COc1cc2c(cc1OC)C(=O)C(Sc1nnc(C)o1)C2 (stereo unspecified) : MtTrpRS: 4.984%; TcHisRS: 4.95%; PfKRS1: -0.8695%; CoaBC: -1.687%; Pks13 thioesterase: 2.641%; Leishmania in macrophages: 3.143%
- Cc1cc(-c2c[nH]nc2C2CCCCN2C(=O)c2ccccc2)on1 (stereo unspecified) : MtTrpRS: 0.07807%; TcHisRS: 4.135%; PfKRS1: 4.333%; CoaBC: 13.52%; Pks13 thioesterase: -0.6763%; Leishmania in macrophages: 6.965%
- CCOc1nnc(CN(CC)CC(=O)Nc2c(F)cccc2F)s1 : MtTrpRS: 5.419%; TcHisRS: 12.12%; PfKRS1: 0.1643%; CoaBC: 4.377%; Pks13 thioesterase: -4.196%; Leishmania in macrophages: 31.16%
- O=C1CC2(CCN(Cc3ccc(Cl)s3)C2)C(=O)N1 (stereo unspecified) : MtTrpRS: 1.639%; TcHisRS: 5.217%; PfKRS1: 13.23%; CoaBC: -5.484%; Pks13 thioesterase: -10.25%; Leishmania in macrophages: 13.04%
- O=C(Nc1cnn(CC(=O)N2CCCCO2)c1)c1ccccn1 : MtTrpRS: 1.802%; TcHisRS: 4.972%; PfKRS1: -3.44%; CoaBC: -1.831%; Pks13 thioesterase: -3.878%; Leishmania in macrophages: 6.022%
- CCC(NC(=O)Cn1ccc(=O)n(C)c1=O)c1ccc(OC)cc1 (stereo unspecified) : MtTrpRS: 2.039%; TcHisRS: -5.882%; PfKRS1: 4.385%; CoaBC: 0.638%; Pks13 thioesterase: -36.46%; Leishmania in macrophages: 24.09%
- COc1ccc(Cn2cc(C(=O)N(C)Cc3ccon3)nn2)cc1 : MtTrpRS: 3.387%; TcHisRS: 4.124%; PfKRS1: 1.668%; CoaBC: 3.538%; Pks13 thioesterase: -18.33%; Leishmania in macrophages: 16.65%